# Results reported in patent US8095350.
# Sequences of proteins named here, by UniProt entry; tags and fusion partners are left off. A change or cut given only in a name is not applied to a line headed by its entry.
# UniProt Q9GZX7: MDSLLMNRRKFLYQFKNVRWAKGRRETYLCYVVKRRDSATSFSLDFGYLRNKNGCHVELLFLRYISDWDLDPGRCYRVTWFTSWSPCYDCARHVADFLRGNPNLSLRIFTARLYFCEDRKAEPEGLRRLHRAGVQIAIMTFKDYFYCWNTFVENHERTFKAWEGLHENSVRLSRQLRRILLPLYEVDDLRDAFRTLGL
# Target: GST-AID (activation-induced cytidine deaminase), wild type (UniProt Q9GZX7)
# Assay: enzyme reaction in vitro
# Conditions: deamination; UDG/NaOH cleavage to 30-nt band; 25 nM DNA, 25 mM Tris pH 8.0, 50 mM NaCl, 37 C, 1 h; protein details: GST (pGEX-KG-AID vector); label: internal fluorescein-dT (before tga, near 5' end); single-stranded DNA
sequence,measurement,value
TAAAGGTGAAGAGAGGAGAGAGAAGTAAGCTGAAGAGAGAGAAGGAAGAGAGTGAAGGAG [deamination ssDNA substrate],activity on this sequence,active
